Experimental data as given in paper doi:10.1101/2024.02.27.582188.
These are yes or no findings as the source states them, for the method shown. Binding seen in cells or lysates may run through a third protein. A yes stands for co-enrichment or nearness to the bait. Other partners may have been found. For some assays here: A no says only that the protein was not detected with the bait. Where a sequence is shown, tags or fusion partners need not be part of it.

How the values were obtained:
[1] = molecular target: T1, PilH-HA (Pseudomonas aeruginosa PAO1) (UniProt P43501); assay: affinity purification with mass spectrometry
T1 sequence: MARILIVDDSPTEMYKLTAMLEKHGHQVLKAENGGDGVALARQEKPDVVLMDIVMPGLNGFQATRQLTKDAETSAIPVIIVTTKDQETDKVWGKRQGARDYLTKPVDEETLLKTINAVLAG

[2] = molecular target: T2, PilG-HA (Pseudomonas aeruginosa PAO1) (UniProt P46384); assay: affinity purification with mass spectrometry
T2 sequence: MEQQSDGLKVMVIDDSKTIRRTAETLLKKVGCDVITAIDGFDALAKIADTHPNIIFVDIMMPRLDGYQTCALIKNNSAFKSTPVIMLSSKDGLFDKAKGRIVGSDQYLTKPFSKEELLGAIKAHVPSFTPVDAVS

In the case of “ChpB methylesterase (from UniProt G3XD63) (enzyme)”, the binding [1] is reported as “no binding” and the binding [2] is reported as “binds”.
